Structures can show the parent of a compound that is named as a salt. This is one part of the list. Hit calls seldom repeat between salt and free forms of one compound.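 Kinases, fused to nanoluciferase, were expressed in K562 cells; luminescence was measured every 4 h from 2 to 18 h as percent of control (DMSO = 100%, positive control = 0%). A time point is decreased if signal falls significantly (2 sigma). Hits were called by the authors by a rule that is not shown; the count of time points alone does not decide it.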
Key:
Experiment in all cases: number of time points (of 5) at which kinase-Nluc abundance scored as decreased, DMSO-normalised (count); higher = more persistent destabilization
Details in all cases: K562; 2-18 h
EGFR_L861Q = EGFR_L861Q (UniProt P00533)
EGFR_T790M = EGFR_T790M (UniProt P00533)
EPHA2 = EPHA2 (UniProt P29317)
ERBB3 = ERBB3 (UniProt P21860)
[1] = biological target: ERBB4_R711C (clone: ERBB4_mut) (UniProt Q15303)
ERN1 = ERN1 (UniProt O75460)
FGFR1 = FGFR1 (UniProt P11362)
FGFR2 = FGFR2 (UniProt P21802)
FGFR3 = FGFR3 (UniProt P22607)
FGR = FGR (UniProt P09769)
FLT3 = FLT3 (UniProt P36888)
FYN = FYN (UniProt P06241)
GSK3A = GSK3A (UniProt P49840)
HER2 = HER2 (UniProt P04626)
INSRR = INSRR (UniProt P14616)
IRAK3 = IRAK3 (UniProt Q9Y616)
JAK1 = JAK1 (UniProt P23458)
LCK = LCK (UniProt P06239)
LIMK1 = LIMK1 (UniProt P53667)
LIMK2 = LIMK2 (UniProt P53671)

The chains behind the UniProt entries cited, without tags or fusion partners. Where a name states a change or a piece, a line headed by the entry shows the natural chain unless it says otherwise.
UniProt P29317, whole entry: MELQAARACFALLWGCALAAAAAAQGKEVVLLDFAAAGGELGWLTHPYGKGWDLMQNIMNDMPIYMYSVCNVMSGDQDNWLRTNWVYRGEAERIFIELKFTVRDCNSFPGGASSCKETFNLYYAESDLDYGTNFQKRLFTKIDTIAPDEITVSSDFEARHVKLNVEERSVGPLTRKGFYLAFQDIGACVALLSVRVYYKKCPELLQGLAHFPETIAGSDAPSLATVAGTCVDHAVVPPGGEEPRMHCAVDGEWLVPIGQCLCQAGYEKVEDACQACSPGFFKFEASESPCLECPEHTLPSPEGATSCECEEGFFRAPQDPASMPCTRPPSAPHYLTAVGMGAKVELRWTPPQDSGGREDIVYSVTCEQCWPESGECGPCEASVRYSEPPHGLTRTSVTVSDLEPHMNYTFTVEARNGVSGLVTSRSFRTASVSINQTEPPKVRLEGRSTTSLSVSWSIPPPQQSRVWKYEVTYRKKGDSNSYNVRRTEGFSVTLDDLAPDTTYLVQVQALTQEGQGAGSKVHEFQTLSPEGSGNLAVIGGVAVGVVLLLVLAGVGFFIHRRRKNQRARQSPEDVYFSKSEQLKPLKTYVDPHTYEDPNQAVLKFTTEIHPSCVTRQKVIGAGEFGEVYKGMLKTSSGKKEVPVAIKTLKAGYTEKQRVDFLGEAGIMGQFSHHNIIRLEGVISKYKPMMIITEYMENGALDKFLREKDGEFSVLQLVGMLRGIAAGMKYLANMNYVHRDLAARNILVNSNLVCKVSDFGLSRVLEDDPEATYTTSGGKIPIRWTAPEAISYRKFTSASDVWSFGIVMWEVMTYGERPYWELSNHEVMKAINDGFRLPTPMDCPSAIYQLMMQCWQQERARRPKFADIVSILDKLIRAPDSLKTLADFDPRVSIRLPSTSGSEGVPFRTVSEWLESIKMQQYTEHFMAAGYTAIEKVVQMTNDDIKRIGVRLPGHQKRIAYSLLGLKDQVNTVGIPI
UniProt P21860, whole entry: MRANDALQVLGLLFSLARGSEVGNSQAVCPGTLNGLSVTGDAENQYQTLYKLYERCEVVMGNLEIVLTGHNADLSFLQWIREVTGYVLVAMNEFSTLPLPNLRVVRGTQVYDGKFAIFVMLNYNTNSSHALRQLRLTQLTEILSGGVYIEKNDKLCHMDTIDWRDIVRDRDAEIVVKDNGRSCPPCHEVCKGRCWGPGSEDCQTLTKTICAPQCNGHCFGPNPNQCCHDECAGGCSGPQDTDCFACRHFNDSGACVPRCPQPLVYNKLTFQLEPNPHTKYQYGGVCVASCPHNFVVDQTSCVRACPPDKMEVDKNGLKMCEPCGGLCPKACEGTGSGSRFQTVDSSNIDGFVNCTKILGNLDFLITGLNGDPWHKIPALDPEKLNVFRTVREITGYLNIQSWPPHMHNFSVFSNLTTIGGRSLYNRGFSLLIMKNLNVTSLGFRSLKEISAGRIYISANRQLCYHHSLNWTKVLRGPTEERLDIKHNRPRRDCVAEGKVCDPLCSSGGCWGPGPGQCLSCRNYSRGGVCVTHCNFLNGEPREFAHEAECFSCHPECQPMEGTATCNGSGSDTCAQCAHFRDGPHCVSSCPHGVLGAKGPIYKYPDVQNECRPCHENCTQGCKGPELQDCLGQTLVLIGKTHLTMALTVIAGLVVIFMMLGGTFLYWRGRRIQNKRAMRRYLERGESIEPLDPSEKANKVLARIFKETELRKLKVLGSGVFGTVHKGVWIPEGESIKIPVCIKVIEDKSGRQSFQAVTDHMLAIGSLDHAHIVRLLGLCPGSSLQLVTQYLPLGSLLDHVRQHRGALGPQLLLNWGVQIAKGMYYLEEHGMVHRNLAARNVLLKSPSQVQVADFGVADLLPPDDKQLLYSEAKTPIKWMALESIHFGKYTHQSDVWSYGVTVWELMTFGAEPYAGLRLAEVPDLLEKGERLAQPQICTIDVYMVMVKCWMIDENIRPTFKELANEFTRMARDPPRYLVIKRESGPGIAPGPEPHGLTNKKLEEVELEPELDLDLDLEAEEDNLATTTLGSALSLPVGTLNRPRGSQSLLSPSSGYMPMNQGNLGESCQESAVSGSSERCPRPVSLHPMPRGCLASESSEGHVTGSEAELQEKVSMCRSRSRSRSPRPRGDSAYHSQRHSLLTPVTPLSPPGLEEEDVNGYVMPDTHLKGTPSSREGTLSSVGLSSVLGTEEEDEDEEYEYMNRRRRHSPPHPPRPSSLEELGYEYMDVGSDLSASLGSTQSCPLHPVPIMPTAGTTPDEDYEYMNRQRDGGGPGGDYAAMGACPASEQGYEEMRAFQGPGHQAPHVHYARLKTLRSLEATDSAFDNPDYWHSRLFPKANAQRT
UniProt P11362, whole entry, looked up: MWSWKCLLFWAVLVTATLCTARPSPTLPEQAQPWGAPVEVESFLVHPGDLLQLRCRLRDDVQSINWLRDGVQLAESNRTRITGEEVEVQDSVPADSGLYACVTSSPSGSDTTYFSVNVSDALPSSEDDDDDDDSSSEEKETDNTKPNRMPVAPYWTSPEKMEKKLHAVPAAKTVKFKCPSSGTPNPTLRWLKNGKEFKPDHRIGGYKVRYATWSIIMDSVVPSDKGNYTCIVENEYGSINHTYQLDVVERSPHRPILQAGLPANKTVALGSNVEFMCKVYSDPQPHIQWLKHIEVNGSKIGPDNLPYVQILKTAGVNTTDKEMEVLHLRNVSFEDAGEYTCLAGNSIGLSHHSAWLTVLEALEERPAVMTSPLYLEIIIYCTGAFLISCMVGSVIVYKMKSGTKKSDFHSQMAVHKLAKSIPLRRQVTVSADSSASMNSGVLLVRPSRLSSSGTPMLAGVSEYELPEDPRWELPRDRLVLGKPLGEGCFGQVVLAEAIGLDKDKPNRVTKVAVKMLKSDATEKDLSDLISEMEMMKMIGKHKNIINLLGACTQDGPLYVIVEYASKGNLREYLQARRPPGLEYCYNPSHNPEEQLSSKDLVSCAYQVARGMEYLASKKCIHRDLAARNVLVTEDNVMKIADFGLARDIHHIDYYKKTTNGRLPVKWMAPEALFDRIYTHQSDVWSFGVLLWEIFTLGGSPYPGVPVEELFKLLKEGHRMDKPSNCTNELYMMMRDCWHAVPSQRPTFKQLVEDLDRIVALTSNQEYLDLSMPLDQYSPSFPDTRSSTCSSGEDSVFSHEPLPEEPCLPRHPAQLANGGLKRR
UniProt P21802, whole entry, looked up: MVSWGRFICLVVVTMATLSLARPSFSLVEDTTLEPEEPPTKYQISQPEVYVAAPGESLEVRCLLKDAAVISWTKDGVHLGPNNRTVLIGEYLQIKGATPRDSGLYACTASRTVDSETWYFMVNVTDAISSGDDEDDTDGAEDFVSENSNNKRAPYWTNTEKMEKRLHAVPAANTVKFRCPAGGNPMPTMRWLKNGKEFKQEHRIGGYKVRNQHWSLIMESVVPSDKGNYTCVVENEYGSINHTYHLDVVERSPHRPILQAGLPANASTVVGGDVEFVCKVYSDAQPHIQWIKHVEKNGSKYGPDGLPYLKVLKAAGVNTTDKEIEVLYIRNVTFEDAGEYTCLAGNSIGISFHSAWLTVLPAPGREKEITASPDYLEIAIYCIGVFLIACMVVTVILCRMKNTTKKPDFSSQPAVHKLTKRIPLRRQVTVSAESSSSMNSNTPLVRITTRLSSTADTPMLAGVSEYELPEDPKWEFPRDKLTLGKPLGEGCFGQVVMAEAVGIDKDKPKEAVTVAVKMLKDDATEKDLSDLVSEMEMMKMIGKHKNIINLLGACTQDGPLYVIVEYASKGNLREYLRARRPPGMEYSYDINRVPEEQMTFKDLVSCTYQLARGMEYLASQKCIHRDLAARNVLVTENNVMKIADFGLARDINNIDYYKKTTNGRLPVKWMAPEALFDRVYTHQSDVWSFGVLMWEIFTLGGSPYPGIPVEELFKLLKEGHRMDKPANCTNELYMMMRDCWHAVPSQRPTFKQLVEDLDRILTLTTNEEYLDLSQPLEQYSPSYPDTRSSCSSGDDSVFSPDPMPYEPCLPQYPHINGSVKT
UniProt P36888, whole entry: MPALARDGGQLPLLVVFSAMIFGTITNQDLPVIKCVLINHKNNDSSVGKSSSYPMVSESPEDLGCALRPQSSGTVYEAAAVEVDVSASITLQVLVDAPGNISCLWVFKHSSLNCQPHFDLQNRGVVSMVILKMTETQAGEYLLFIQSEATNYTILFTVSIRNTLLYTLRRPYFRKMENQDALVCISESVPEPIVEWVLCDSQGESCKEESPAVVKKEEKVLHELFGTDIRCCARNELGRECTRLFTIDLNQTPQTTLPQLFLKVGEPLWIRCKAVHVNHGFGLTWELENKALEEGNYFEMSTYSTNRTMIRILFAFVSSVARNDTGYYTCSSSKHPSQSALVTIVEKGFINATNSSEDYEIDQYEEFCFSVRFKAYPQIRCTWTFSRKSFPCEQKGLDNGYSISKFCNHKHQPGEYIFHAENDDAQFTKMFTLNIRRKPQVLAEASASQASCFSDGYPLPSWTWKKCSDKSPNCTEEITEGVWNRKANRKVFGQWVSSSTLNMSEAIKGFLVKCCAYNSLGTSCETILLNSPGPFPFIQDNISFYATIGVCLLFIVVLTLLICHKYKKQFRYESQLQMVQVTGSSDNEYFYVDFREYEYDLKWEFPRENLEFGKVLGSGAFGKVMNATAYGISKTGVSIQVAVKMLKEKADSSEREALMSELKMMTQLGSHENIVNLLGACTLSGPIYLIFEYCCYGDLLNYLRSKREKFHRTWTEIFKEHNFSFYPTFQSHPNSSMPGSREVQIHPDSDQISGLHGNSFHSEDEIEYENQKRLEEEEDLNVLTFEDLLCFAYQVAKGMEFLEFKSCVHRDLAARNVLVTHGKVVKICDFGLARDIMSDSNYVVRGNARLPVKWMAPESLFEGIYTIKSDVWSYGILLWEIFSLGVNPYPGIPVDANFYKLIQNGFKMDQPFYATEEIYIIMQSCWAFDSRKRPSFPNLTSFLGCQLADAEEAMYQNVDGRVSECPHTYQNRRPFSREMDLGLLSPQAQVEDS
UniProt P06241, whole entry, looked up: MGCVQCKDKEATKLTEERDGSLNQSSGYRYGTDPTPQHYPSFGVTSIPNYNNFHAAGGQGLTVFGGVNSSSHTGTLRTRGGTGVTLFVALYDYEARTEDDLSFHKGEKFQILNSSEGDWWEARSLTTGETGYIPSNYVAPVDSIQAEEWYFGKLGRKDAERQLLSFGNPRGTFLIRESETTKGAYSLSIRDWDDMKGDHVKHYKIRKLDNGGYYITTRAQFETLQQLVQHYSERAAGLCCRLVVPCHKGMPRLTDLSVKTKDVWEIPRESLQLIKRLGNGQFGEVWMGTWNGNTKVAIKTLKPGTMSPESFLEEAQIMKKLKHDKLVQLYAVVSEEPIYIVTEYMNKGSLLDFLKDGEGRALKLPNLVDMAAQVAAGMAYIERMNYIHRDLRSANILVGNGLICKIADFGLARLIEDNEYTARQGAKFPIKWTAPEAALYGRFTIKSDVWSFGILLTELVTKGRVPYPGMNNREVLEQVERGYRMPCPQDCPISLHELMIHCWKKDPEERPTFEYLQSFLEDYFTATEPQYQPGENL
UniProt P49840: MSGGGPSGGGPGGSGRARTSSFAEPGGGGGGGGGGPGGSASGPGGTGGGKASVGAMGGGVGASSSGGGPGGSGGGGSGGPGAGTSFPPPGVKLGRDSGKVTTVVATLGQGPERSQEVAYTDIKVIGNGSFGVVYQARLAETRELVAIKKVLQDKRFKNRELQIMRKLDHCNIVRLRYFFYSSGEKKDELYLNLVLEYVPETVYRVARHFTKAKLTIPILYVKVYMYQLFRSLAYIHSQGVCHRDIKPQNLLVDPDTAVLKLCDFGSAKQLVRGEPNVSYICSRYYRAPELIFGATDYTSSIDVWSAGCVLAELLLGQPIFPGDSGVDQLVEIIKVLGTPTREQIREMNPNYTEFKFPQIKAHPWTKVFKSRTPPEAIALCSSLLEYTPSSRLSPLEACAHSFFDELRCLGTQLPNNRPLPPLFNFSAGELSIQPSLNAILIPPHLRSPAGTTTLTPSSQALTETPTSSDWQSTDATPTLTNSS
UniProt Q9Y616: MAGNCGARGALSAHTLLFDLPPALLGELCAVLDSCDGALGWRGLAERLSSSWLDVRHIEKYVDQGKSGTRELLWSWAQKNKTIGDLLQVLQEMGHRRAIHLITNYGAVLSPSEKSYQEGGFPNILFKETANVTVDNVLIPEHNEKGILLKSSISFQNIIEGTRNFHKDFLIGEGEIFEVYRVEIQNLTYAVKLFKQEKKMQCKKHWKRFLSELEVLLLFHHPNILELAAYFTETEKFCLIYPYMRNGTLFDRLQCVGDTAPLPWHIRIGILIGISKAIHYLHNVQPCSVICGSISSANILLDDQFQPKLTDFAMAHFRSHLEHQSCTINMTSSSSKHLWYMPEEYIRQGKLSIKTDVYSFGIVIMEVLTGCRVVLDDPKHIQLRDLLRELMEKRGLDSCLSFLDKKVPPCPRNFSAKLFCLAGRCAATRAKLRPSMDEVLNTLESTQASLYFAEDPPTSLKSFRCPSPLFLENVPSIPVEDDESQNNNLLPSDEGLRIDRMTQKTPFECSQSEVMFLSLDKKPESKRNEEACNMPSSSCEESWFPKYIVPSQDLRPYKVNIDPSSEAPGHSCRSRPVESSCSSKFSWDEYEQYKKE

SMILES | number of time points (EGFR_L861Q) | number of time points (EGFR_T790M) | number of time points (EPHA2) | number of time points (ERBB3) | number of time points [1] | number of time points (ERN1) | number of time points (FGFR1) | number of time points (FGFR2) | number of time points (FGFR3) | number of time points (FGR) | number of time points (FLT3) | number of time points (FYN) | number of time points (GSK3A) | number of time points (HER2) | number of time points (INSRR) | number of time points (IRAK3) | number of time points (JAK1) | number of time points (LCK) | number of time points (LIMK1) | number of time points (LIMK2)
O=Nc1c(-c2c(O)[nH]c3ccccc23)[nH]c2ccccc12 [Indirubin-3'-monoxime] (2.5 µM) | 0 | 0 | 0 | 0 | 0 | 0 | 4 | 0 | 0 | 0 | 0 | 0 | 0 | 0 | 0 | 1 | 0 | 0 | 0 | 0
C[C@@H]1COCCN1c1cc(C2([S@](C)(=N)=O)CC2)nc(-c2cc[nH]c3nccc2-3)n1 [Ceralasertib] (2.5 µM) | 0 | 0 | 0 | 0 | 0 | 0 | 0 | 0 | 0 | 0 | 0 | 0 | 0 | 0 | 0 | 0 | 0 | 0 | 0 | 0
CSc1ccc(CN2CCCC(Nc3ccc4[nH]ncc4c3)C2)cc1 (stereo not given) [Rho-Kinase-IN-1] (10 µM) | 0 | 0 | 0 | 0 | 0 | 0 | 0 | 0 | 0 | 0 | 0 | 0 | 0 | 0 | 0 | 0 | 0 | 0 | 0 | 0
O=[N+]([O-])c1ccc(Sc2cccc[n+]2[O-])c2nonc12 (2.5 µM) | 0 | 0 | 0 | 0 | 0 | 0 | 0 | 0 | 0 | 0 | 0 | 0 | 0 | 0 | 0 | 0 | 0 | 0 | 0 | 0
COc1ncc(Nc2ncc([C@@H](C)N3CCN(S(C)(=O)=O)CC3)cc2-c2nc(C)nc(N)n2)cc1F (10 µM) | 0 | 0 | 0 | 0 | 0 | 0 | 0 | 0 | 0 | 0 | 0 | 0 | 0 | 0 | 0 | 0 | 0 | 0 | 0 | 0
CCCCOc1ccc(CC/C=C2\SC(=O)N(CCN)C2=O)cc1 [K145 (hydrochloride)] (2.5 µM) | 0 | 0 | 0 | 0 | 0 | 0 | 0 | 0 | 0 | 0 | 0 | 0 | 0 | 0 | 0 | 0 | 0 | 0 | 0 | 0
Cc1cnc(Nc2ccc(N3CCN(C)CC3)cc2)nc1Nc1cccc(S(=O)(=O)NC(C)(C)C)c1 (2.5 µM) | 0 | 0 | 0 | 0 | 0 | 0 | 0 | 0 | 0 | 0 | 0 | 0 | 0 | 0 | 0 | 1 | 0 | 0 | 0 | 0
C=C(F)C(=O)N1CCN(c2nc(OC[C@@H]3CCCN3C)nc3c2CCN(c2cccc4cccc(Cl)c24)C3)C[C@@H]1CC#N (2.5 µM) | 0 | 0 | 0 | 0 | 0 | 0 | 0 | 0 | 0 | 0 | 0 | 0 | 0 | 0 | 0 | 0 | 0 | 0 | 0 | 0
NS(=O)(=O)c1ccc(N2N=C(c3ccccc3)CC2c2ccccc2)cc1 (stereo not given) (10 µM) | 0 | 0 | 0 | 1 | 0 | 0 | 0 | 0 | 0 | 0 | 0 | 0 | 0 | 0 | 0 | 0 | 0 | 0 | 0 | 0
COc1ccc2c(c1OC)OC1c3ccc(O)cc3OCC21 (stereo not given) [Methylnissolin] (10 µM) | 0 | 0 | 0 | 0 | 0 | 0 | 0 | 0 | 0 | 0 | 0 | 0 | 0 | 0 | 0 | 0 | 0 | 0 | 0 | 0
C=CC(=O)Nc1cccc(Oc2nc(Nc3ccc(N4CCN(C)CC4)cc3)nc3ccoc23)c1 [Poseltinib] (10 µM) | 0 | 0 | 0 | 0 | 0 | 0 | 0 | 0 | 0 | 0 | 0 | 0 | 0 | 4 | 0 | 0 | 0 | 0 | 0 | 0
O=C(CCCCCn1cc(Nc2ncc(Cl)c(Nc3ccc(Cl)cc3)n2)cn1)NO (2.5 µM) | 0 | 1 | 0 | 0 | 0 | 1 | 0 | 0 | 0 | 0 | 0 | 0 | 0 | 0 | 0 | 0 | 0 | 0 | 0 | 0
CCOC(=O)c1c2c3c(cccc3[nH]c1=O)C(=O)c1ccccc1-2 (10 µM) | 0 | 0 | 0 | 0 | 0 | 0 | 0 | 0 | 0 | 0 | 0 | 0 | 0 | 0 | 0 | 0 | 0 | 0 | 0 | 0
Cn1cc(-c2cc3c(N4CCN(c5ncc([C@@](C)(N)c6ccc(F)cc6)cn5)CC4)ncnn3c2)cn1 [Avapritinib] (2.5 µM) | 0 | 0 | 0 | 0 | 0 | 0 | 0 | 0 | 0 | 0 | 0 | 0 | 0 | 0 | 0 | 0 | 0 | 0 | 4 | 0
Cc1cccc(-c2[nH]ncc2-c2ccc3ncccc3n2)n1 (10 µM) | 0 | 0 | 0 | 0 | 0 | 0 | 0 | 0 | 0 | 0 | 0 | 0 | 0 | 0 | 0 | 0 | 0 | 0 | 0 | 0
c1ccc(-c2oc3ncnc(NC[C@@H]4CCCO4)c3c2-c2ccccc2)cc1 (2.5 µM) | 0 | 0 | 0 | 0 | 0 | 0 | 0 | 0 | 0 | 0 | 0 | 0 | 0 | 0 | 0 | 0 | 0 | 0 | 0 | 0
COc1ccc2c(=O)c(-c3ccccc3)coc2c1 [7-Methoxyisoflavone] (10 µM) | 0 | 0 | 0 | 0 | 0 | 0 | 3 | 0 | 0 | 0 | 0 | 3 | 0 | 0 | 0 | 0 | 0 | 0 | 0 | 0
N#C/C(=C(/N)Sc1ccc(N)cc1)c1ccccc1C(F)(F)F (10 µM) | 0 | 0 | 0 | 0 | 0 | 0 | 0 | 0 | 0 | 0 | 0 | 0 | 0 | 0 | 0 | 0 | 0 | 0 | 0 | 0
CC(C)N(C)c1nc2cc(C(=O)O)ccc2nc1-c1ccc(F)cc1 (10 µM) | 0 | 0 | 0 | 0 | 0 | 0 | 0 | 0 | 0 | 0 | 0 | 0 | 0 | 0 | 0 | 0 | 0 | 0 | 0 | 0
COc1cc(C(C)=O)cc(OC)c1O [Acetosyringone] (10 µM) | 0 | 0 | 0 | 0 | 0 | 0 | 0 | 0 | 0 | 0 | 0 | 0 | 0 | 0 | 0 | 0 | 0 | 0 | 0 | 0
OCCN(CCO)c1ccc(C(c2ccc(Cl)cc2)c2ccc(N(CCO)CCO)cc2)cc1 (10 µM) | 0 | 0 | 3 | 3 | 4 | 3 | 0 | 3 | 3 | 0 | 0 | 0 | 0 | 0 | 4 | 0 | 0 | 0 | 4 | 2
O=c1ccoc2cc(O)ccc12 [7-Hydroxy-4H-chromen-4-one] (10 µM) | 0 | 0 | 0 | 0 | 0 | 0 | 0 | 0 | 0 | 0 | 0 | 0 | 0 | 0 | 0 | 0 | 0 | 0 | 0 | 0
COc1cc2ncnc(Nc3ccc(NC(=O)c4ccccc4)cc3)c2cc1OC [Aurora kinase inhibitor-2] (2.5 µM) | 0 | 0 | 0 | 0 | 0 | 0 | 0 | 0 | 0 | 0 | 0 | 0 | 0 | 0 | 0 | 0 | 0 | 0 | 0 | 0

Two of the compounds above, with tabs.
SMILES	number of time points (EGFR_L861Q)	number of time points (EGFR_T790M)	number of time points (EPHA2)	number of time points (ERBB3)	number of time points [1]	number of time points (ERN1)	number of time points (FGFR1)	number of time points (FGFR2)	number of time points (FGFR3)	number of time points (FGR)	number of time points (FLT3)	number of time points (FYN)	number of time points (GSK3A)	number of time points (HER2)	number of time points (INSRR)	number of time points (IRAK3)	number of time points (JAK1)	number of time points (LCK)	number of time points (LIMK1)	number of time points (LIMK2)
C=CC(=O)Nc1cccc(Oc2nc(Nc3ccc(N4CCN(C)CC4)cc3)nc3ccoc23)c1 [Poseltinib] (10 µM)	0	0	0	0	0	0	0	0	0	0	0	0	0	4	0	0	0	0	0	0
O=C(CCCCCn1cc(Nc2ncc(Cl)c(Nc3ccc(Cl)cc3)n2)cn1)NO (2.5 µM)	0	1	0	0	0	1	0	0	0	0	0	0	0	0	0	0	0	0	0	0
